Results are given in words; binding and its absence hold for the method and conditions named. For some of these results: Binding seen in cells or lysates may run through a third protein. Some results given as binding are weak or reduced against the parent protein; the word gives no strength.
What was measured:
[1] = molecular target: GST-Cyclin A fusion protein (UniProt P20248); assay: GST pull-down of in vitro translated 35S PAP
[2] = molecular target: GST-Cyclin B1 fusion protein (UniProt P14635); assay: GST pull-down of in vitro translated 35S PAPs
[3] = molecular target: GST-Cyclin B1 fusion protein (UniProt P14635); assay: GST-cyclin B1 pull-down of 35S PAP with the PAP CRM 8-mer
human cyclin B1 (human) [4] = molecular target: human cyclin B1 (human) (UniProt P14635); assay: co-immunoprecipitation from sf9 cell extracts, Western blot
[5] = molecular target: GST-Cyclin A fusion protein (UniProt P20248); assay: GST pull-down of in vitro translated 35S PAP I, autoradiography
[6] = molecular target: GST-Cyclin B1 fusion protein (UniProt P14635); assay: as above
[7] = molecular target: GST-Cyclin B1 fusion protein (UniProt P14635); assay: GST-cyclin B1 pull-down of in vitro translated 35S PAPs, autoradiography
human cyclin B1 (human) [8] = molecular target: human cyclin B1 (human) (UniProt P14635); assay: co-immunoprecipitation with anti-PAP polyclonal antibody from co-infected sf9 cell extracts, Western blot with anti-cyclin B1 antibody
[9] = molecular target: GST-Cyclin B1 fusion protein (UniProt P14635); assay: GST-cyclin B1 pull-down of purified bacterial PAP with peptides, Western blot
[10] = molecular target: GST-Cyclin B1 fusion protein (UniProt P14635); assay: GST-cyclin B1 (1 µg) pull-down of purified his-PAP I (100 ng) with the PAP CRM 8-mer, Western blot with anti-PAP polyclonal antibody

The chains behind the UniProt entries cited, without tags or fusion partners. Where a name states a change or a piece, a line headed by the entry shows the natural chain unless it says otherwise. A line that says so, or that is headed by a name, gives the form on record, which may keep a tag or linker.
UniProt P14635: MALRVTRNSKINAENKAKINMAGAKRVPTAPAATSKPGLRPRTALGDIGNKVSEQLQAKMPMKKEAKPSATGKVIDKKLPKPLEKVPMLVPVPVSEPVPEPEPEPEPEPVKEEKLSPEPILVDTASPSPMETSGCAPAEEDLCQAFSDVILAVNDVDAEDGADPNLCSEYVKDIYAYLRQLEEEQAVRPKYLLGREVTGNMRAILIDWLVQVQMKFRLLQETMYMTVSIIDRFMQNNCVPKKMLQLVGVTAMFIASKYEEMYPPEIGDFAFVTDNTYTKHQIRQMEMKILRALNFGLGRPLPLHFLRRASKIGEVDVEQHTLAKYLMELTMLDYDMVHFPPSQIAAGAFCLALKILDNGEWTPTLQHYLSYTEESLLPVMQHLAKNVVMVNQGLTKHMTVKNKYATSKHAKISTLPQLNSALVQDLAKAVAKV
bacterial produced, purified his-PAP I (P25500, form named): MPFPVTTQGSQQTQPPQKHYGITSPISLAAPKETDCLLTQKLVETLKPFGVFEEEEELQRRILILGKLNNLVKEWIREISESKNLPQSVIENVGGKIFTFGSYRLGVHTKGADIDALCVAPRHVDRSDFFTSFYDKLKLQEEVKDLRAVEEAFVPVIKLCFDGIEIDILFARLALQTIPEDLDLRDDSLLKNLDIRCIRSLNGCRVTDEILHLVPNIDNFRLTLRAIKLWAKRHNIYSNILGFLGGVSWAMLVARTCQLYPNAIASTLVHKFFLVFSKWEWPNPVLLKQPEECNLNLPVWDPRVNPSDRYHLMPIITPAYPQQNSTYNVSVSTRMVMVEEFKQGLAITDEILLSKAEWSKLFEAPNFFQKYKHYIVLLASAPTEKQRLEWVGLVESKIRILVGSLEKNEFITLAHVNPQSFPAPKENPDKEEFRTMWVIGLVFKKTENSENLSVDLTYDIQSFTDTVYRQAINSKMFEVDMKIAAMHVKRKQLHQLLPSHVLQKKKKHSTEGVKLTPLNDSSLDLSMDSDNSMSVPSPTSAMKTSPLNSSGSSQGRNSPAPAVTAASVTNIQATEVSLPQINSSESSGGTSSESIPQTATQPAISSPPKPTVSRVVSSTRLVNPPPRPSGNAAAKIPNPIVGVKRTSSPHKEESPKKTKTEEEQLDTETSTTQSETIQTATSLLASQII

binding [1]	binding [2]	binding [3]	binding (human cyclin B1 (human) [4])	binding [5]	binding [6]	binding [7]	binding (human cyclin B1 (human) [8])	binding [9]	binding [10]	Substance
binds	binds	binds	binds	binds	binds	binds	binds	–	–	bovine PAP I (poly(A) polymerase I), full-length (from UniProt P25500 1-689) (enzyme)
–	–	–	–	–	–	–	–	binds	binds	bacterial produced, purified his-PAP I (from UniProt P25500 1-689) (enzyme)

Reference: patent publication US6696546
